The list is a part of this screen's results and no random one: it is rich in T/C values a quarter to a half above the control, in often repeated tests (any T/C) and in doses without a T/C. Other doses and runs of a compound stand elsewhere. T/C: endpoint of the treated group in % of that of the vehicle group. Some doses have a count of surviving animals in place of a T/C: the source files T/C as zero there, which appears to mark a toxic dose or a test without result, not a measured value. Some survivor counts are full or nearly so, which does not show that the dose was tolerated: the source hardly ever lists a survival T/C far under the control, and the zero likely stands for such cases as well. Counts of survivors are from the toxicity check (mostly the fifth day) where no day follows; animals may have died later. Schedule codes are those of the source, taken here to give the interval after Q, in days (D) or hours (H), and the number of doses after X. Some doses were run more than once; their values stand side by side, smallest first. Where survival is the endpoint, the PubChem record calls one and a half times the control and up active, and a quarter to a half above the control has no call in these data; cut-offs in other NCI protocols can differ. Some T/C values are followed by the survivors on the day toxicity was checked, most often the fifth; where none is given, no animal had died by that day.
Tested on: P388 leukemia ip, CD2F1 mice, survival T/C
Assay: NCI In Vivo Anticancer Drug Screen. Data for tumor model P388 Leukemia (intraperitoneal) in CD2F1 (CDF1) mice
Conditions: T/C endpoint: median survival time, higher T/C = longer survival
[1] = dose: 50.0 mg/kg/injection, schedule: Q01DX009 (ip), vehicle: saline with Tween-80
[2] = dose: 100.0 mg/kg/injection, schedule: Q01DX009 (ip), vehicle: saline with Tween-80
[3] = dose: 200.0 mg/kg/injection, schedule: Q01DX009 (ip), vehicle: saline with Tween-80
[4] = dose: 12.5 mg/kg/injection, schedule: Q01DX009 (ip), vehicle: saline
[5] = dose: 50.0 mg/kg/injection, schedule: Q01DX009 (ip), vehicle: saline
[6] = dose: 200.0 mg/kg/injection, schedule: Q01DX005 (ip), vehicle: saline
[7] = dose: 15.0 mg/kg/injection, schedule: Q01DX005 (ip), vehicle: saline with Tween-80
[8] = dose: 60.0 mg/kg/injection, schedule: Q01DX005 (ip), vehicle: saline with Tween-80
[9] = dose: 120.0 mg/kg/injection, schedule: Q01DX005 (ip), vehicle: saline with Tween-80
[10] = dose: 240.0 mg/kg/injection, schedule: Q01DX005 (ip), vehicle: saline with Tween-80
[11] = dose: 100.0 mg/kg/injection, schedule: Q01DX005 (ip), vehicle: saline with Tween-80
[12] = dose: 30.0 mg/kg/injection, schedule: Q01DX005 (ip), vehicle: saline with Tween-80

CCCCCCCCCCCCCCCCCC(=O)NC(CC(=O)OCCCCCC)c1ccc(N(CCCl)CCCl)cc1 (stereo not drawn)
T/C (dose: 2.15 mg/kg/injection, schedule: Q01DX009 (ip), vehicle: saline): 145 % of control
T/C (dose: 2.15 mg/kg/injection, schedule: Q03HX008 (ip), vehicle: saline): 125 % of control
T/C (dose: 4.3 mg/kg/injection, schedule: Q03HX008 (ip), vehicle: saline): 140 % of control
T/C (dose: 69.0 mg/kg/injection, schedule: Q03HX008 (ip), vehicle: saline): 145 % of control [9 of 10 alive]

C[N+](C)(C)CCC(=O)c1ccc(Cl)c(Cl)c1
survivor count [1]: 0 of 6
survivor count [2]: 0 of 6
survivor count [3]: 0 of 6

CCOC1=CC(=O)/C(=C/O[Si](C)(C)C)CC1
survivor count [3]: 5 of 6

CCCCC(=O)N/N=C(\C)[C@]1(O)Cc2c(O)c3c(c(O)c2[C@@H](OC2CC(N)C(O)C(C)O2)C1)C(=O)c1c(OC)cccc1C3=O (stereo partly drawn)
T/C (dose: 0.5 mg/kg/injection, schedule: Q01DX009 (ip), vehicle: water): 144 % of control
T/C (dose: 1.0 mg/kg/injection, schedule: Q01DX009 (ip), vehicle: water): 141 % of control
survivor count (dose: 16.0 mg/kg/injection, schedule: Q01DX009 (ip), vehicle: water): 4 of 4 and 6 of 6

CN(C)P(=O)(Oc1occc1C(C)(C)O)N(C)C
survivor count (dose: 30.0 mg/kg/injection, schedule: Q01DX005 (ip), vehicle: saline): 0 of 6
survivor count (dose: 60.0 mg/kg/injection, schedule: Q01DX005 (ip), vehicle: saline): 0 of 6
survivor count (dose: 120.0 mg/kg/injection, schedule: Q01DX005 (ip), vehicle: saline): 0 of 6
survivor count (dose: 240.0 mg/kg/injection, schedule: Q01DX005 (ip), vehicle: saline): 0 of 6

O=[N+]([O-])c1ccc(CS(=O)(=O)C(Cl)(Cl)Cl)o1
T/C [4]: 115 % of control
survivor count [4]: 3 of 6 and 5 of 6
T/C (dose: 25.0 mg/kg/injection, schedule: Q01DX009 (ip), vehicle: saline): 92, 99, 109, 110 % of control
survivor count [5]: 4 of 6
survivor count (dose: 100.0 mg/kg/injection, schedule: Q01DX009 (ip), vehicle: suspension in saline): 6 of 6

Cc1c2ccncc2c(C)c2c1[nH]c1cc(O)ccc12
T/C (dose: 12.5 mg/kg/injection, schedule: Q04DX003 (ip), vehicle: distilled water + Tween-80): 126 % of control
T/C (dose: 25.0 mg/kg/injection, schedule: Q04DX003 (ip), vehicle: distilled water + Tween-80): 125 and 133 % of control
T/C (dose: 50.0 mg/kg/injection, schedule: Q04DX003 (ip), vehicle: distilled water + Tween-80): 134 and 145 % of control

COC(=O)c1nc(=S)[nH]c(C(=O)OC)c1C(=O)c1cccc(O)c1
survivor count (dose: 240.0 mg/kg/injection, schedule: Q01DX005 (ip), vehicle: suspension in saline): 2 of 6

N#CO
T/C [1]: 136 % of control
survivor count [3]: 6 of 6

O=C1N(Cl)C(=O)C(c2ccc(Cl)cc2)(c2ccc(Cl)cc2)N1Cl
T/C (dose: 25.0 mg/kg/injection, schedule: Q01DX009 (ip), vehicle: saline with Tween-80): 127 % of control
T/C [1]: 145 % of control [5 of 6 alive]
survivor count [2]: 5 of 6
survivor count [3]: 5 of 6

O=C1CN(C2OC(CO)C(O)C2O)C(=O)NC1=O (stereo not drawn)
T/C [6]: 134 % of control

C=C1C(O)C2(O)OCC34C(CC5C(C)=CC(=O)C(O)C5(C)C23)OC(=O)C(OC(=O)C/C=C/CCCCCCCC)C14 (stereo not drawn)
T/C (dose: 0.5 mg/kg/injection, schedule: Q01DX005 (ip), vehicle: saline + alcohol): 125 and 131 % of control
T/C (dose: 1.0 mg/kg/injection, schedule: Q01DX005 (ip), vehicle: saline + alcohol): 133 and 136 % of control
T/C (dose: 2.0 mg/kg/injection, schedule: Q01DX005 (ip), vehicle: saline + alcohol): 137 % of control

CC1C(N)CC2CC1C2(C)C (stereo not drawn)
survivor count [3]: 1 of 6

COc1cc(/C=N/OC(=O)Nc2ccccc2)cc(OC)c1OC
survivor count [1]: 6 of 6

C[Si](C)(C[P+](=O)[O][Sn]([CH3])([CH3])[O][P+](=O)C[Si](C)(C)c1ccccc1)c1ccccc1 (stereo not drawn)
survivor count [7]: 0 of 6
survivor count [8]: 5 of 6
survivor count [9]: 0 of 6
survivor count [10]: 0 of 6

C=C(C(=O)OC1C/C(C)=C/C(O)C/C(C)=C/C2OC(=O)C(=C)C21)C(C)O (stereo not drawn)
T/C (dose: 100.0 mg/kg/injection, schedule: Q04DX002 (ip), vehicle: saline with Tween-80): 125 % of control
survivor count (dose: 200.0 mg/kg/injection, schedule: Q04DX002 (ip), vehicle: Klucel (hydroxypropylcellulose) (HPC)): 0 of 6

O=C1OC2C(O)COC2(N=Nc2ccc(Cl)cc2)/C1=N/Nc1ccccc1 (stereo not drawn)
survivor count (dose: 50.0 mg/kg/injection, schedule: Q01DX005 (ip), vehicle: saline with Tween-80): 6 of 6
survivor count [11]: 6 of 6

CS/N=C(\c1ccccc1)N1CCOCC1
survivor count (dose: 240.0 mg/kg/injection, schedule: Q01DX005 (ip), vehicle: Klucel (hydroxypropylcellulose) (HPC)): 0 of 6

NNc1ncnc2nc[nH]c12
survivor count [1]: 2 of 6
survivor count [5]: 4 of 6
survivor count [2]: 0 of 6
survivor count [3]: 0 of 6
survivor count (dose: 400.0 mg/kg/injection, schedule: Q04DX003 (ip), vehicle: saline sonified): 0 of 6

O=S(O)CCCCSSCC(O)CO (stereo not drawn)
T/C (dose: 100.0 mg/kg/injection, schedule: Q01DX005 (ip), vehicle: saline): 128 % of control

O=NN(CCF)C(=O)Oc1ccc([N+](=O)[O-])cc1
survivor count (dose: 50.0 mg/kg/injection, schedule: Q01DX001 (ip), vehicle: Klucel (hydroxypropylcellulose) (HPC)): 0 of 6
survivor count (dose: 100.0 mg/kg/injection, schedule: Q01DX001 (ip), vehicle: Klucel (hydroxypropylcellulose) (HPC)): 0 of 6

N=c1nc(N)nc2c3ccccc3nnn12
survivor count [9]: 4 of 6
survivor count [10]: 0 of 6

COc1ccc(Br)cc1-c1cc2cccc[n+]2o1
survivor count [5]: 2 of 6

C[Si](C)(C)CN1CCCC1
survivor count [6]: 0 of 6

CC1(C)C(=O)CCC2(C)C1CC(=O)C1(C)C2CCC2(C)C(c3ccoc3)OC(=O)C3OC321 (stereo not drawn)
survivor count (dose: 1.0 mg/kg/injection, schedule: Q01DX009 (ip), vehicle: Klucel (hydroxypropylcellulose) (HPC)): 6 of 6

CNC(=S)/N=c1/sc([N+](=O)[O-])c(C)n1C
survivor count [7]: 6 of 6
survivor count [12]: 6 of 6
survivor count [8]: 6 of 6
survivor count [9]: 6 of 6
survivor count [10]: 6 of 6

N#CSc1ccc2nc(N)sc2c1
survivor count (dose: 50.0 mg/kg/injection, schedule: Q01DX009 (ip), vehicle: Klucel (hydroxypropylcellulose) (HPC)): 6 of 6
survivor count (dose: 100.0 mg/kg/injection, schedule: Q01DX009 (ip), vehicle: Klucel (hydroxypropylcellulose) (HPC)): 0 of 6
survivor count (dose: 200.0 mg/kg/injection, schedule: Q01DX009 (ip), vehicle: Klucel (hydroxypropylcellulose) (HPC)): 0 of 6

c1ccc(OCC2CO2)c(OCC2CO2)c1 (stereo not drawn)
T/C [12]: 121, 123, 128, 132 % of control
T/C [8]: 120, 135 [5 of 6 alive], 137, 144 % of control
T/C [11]: 143 % of control
T/C [9]: 155, 161, 163, 234 % of control
T/C (dose: 200.0 mg/kg/injection, schedule: Q01DX005 (ip), vehicle: saline with Tween-80): 133 % of control
survivor count (dose: 400.0 mg/kg/injection, schedule: Q01DX005 (ip), vehicle: saline with Tween-80): 4 of 6
survivor count (dose: 480.0 mg/kg/injection, schedule: Q01DX005 (ip), vehicle: saline with Tween-80): 5 of 6
